Measurements reported in the supplement of paper PMC7877785.
± gives the uncertainty stated by the source. Many entries were measured with a wide error.

Assay: self-splicing fitness, log relative to wild type (ln ratio); higher = more splicing; Tetrahymena group I intron in knt gene, E. coli kanamycin selection, DiMSum; sequences stand for … in CUCUCU…GGAGGGAAAAGUUAUCAGGCAUGCACCUGGUAGCUAGUCUUUAAACCAAUAGAUUGCAUCGGUUUAAAAGGCAAGACCGUCAAAUUGCGGGAAAGGGGUCAACAGCCGUUCAGUACCAAGUCUCAGGGGAAACUUUGAGAUGGCCUUGCAAAGGGUAUGGUAAUAAGCUGACGGACAUGGUCCUAACCACGCAGCCAAGUCCUAAGUCAACAGAUCUUCUGUUGAUAUGGAUGCAGUUCACAGACUAAAUGUCGGUCGGGGAAGAUGUAUUCUUCUCAUAAGAUAUAGUCGGACCUCUCCUUAAUGGGAGCUAGCGGAUGAAGUGAUGCAACACUGGAGCCGCUGGGAACUAAUUUGUAUGCGAAAGUAUAUUGAUUAGUUUUGGAGUACUCGUGGUCG
Outline: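 Fitness was computed with DiMSum as the error-weighted combination of replicate fold changes, kanamycin versus none, each normalised to wild type. The library randomised all eight intron nucleotides of the P1ex region, with the intron placed in the knt kanamycin-resistance gene on pET-22b(+) in E. coli BL21(DE3). Six replicate transformations were grown overnight at 37°C or 30°C on LB agar with or without 25 μg/mL kanamycin, plus 100 μg/mL carbenicillin, 50 μM IPTG and 0.2% rhamnose. Pooled colonies were amplicon-sequenced on an Illumina HiSeq 2500.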

Sequence	self-splicing fitness (ln) (30 °C)	self-splicing fitness (ln) (37 °C)
UGGGAGCAAUAUUACGUGUA	-4 ± 0.61	
GGUGAGCAAUAUUACGUUUG		-3.38 ± 0.6
CGGCAGCAAUAUUACGCCGC		-2.05 ± 0.51
UCAGAGCAAUAUUACGGCAG	-3.72 ± 1	
GAAGAGCAAUAUUACGUGCU	-3.52 ± 0.22	-3.36 ± 0.73
AUGAAGCAAUAUUACGAGCU	-1.52 ± 0.12	-0.173 ± 0.14
CGAGAGCAAUAUUACGUUCC	-2.65 ± 0.76	
UAAGAGCAAUAUUACGUACC	-3.59 ± 0.61	-1.61 ± 0.56
AUCUAGCAAUAUUACGUGAU	-1.16 ± 0.14	-2.25 ± 0.32
UAUAAGCAAUAUUACGGGCC	-2.99 ± 0.31	-2.7 ± 0.62
CUACAGCAAUAUUACGUACA	-1.78 ± 0.17	-1.29 ± 0.2
GUAGAGCAAUAUUACGCACA	-0.23 ± 0.14	-0.117 ± 0.14
GGAGAGCAAUAUUACGCGGG		-1.24 ± 0.52
AGAAAGCAAUAUUACGUACC	-0.284 ± 0.087	0.446 ± 0.12
UAGGAGCAAUAUUACGAAUC	-5.18 ± 1	
GUACAGCAAUAUUACGUCCC	0.202 ± 0.52	0.947 ± 0.65
CCAGAGCAAUAUUACGCGAU	-5.27 ± 0.71	
UCGCAGCAAUAUUACGUUGC	-4.38 ± 0.52	
UGGGAGCAAUAUUACGACAC	-0.135 ± 0.61	0.791 ± 1.1
GAGGAGCAAUAUUACGCAAC		-2.95 ± 0.61
UCUGAGCAAUAUUACGCUCU		-1.81 ± 0.67
UGGGAGCAAUAUUACGAUAG		-3.6 ± 0.59

Sequence	self-splicing fitness (ln) (30 °C)	self-splicing fitness (ln) (37 °C)
UUGUAGCAAUAUUACGACCC	-2.24 ± 0.68	
GUUGAGCAAUAUUACGGGGA	-3.78 ± 0.6	-2.17 ± 0.55
AGAGAGCAAUAUUACGGGGC	-1.74 ± 0.55	-1.39 ± 1.2
GGUCAGCAAUAUUACGUUCG	-0.853 ± 0.093	0.373 ± 0.13
UAGGAGCAAUAUUACGGCCU	-1.19 ± 0.73	0.71 ± 0.55
AUUUAGCAAUAUUACGCUAC	-1.52 ± 0.87	-3.28 ± 0.6
CUAGAGCAAUAUUACGUCCA	-4.05 ± 0.74	
GGGGAGCAAUAUUACGGCCG	0.671 ± 0.55	-1.13 ± 0.6
CCGAAGCAAUAUUACGACCC	-3.51 ± 0.74	0.475 ± 0.81
UGCGAGCAAUAUUACGAACC	-3.35 ± 1	
UGCGAGCAAUAUUACGAAAA		-0.527 ± 0.56
AUAUAGCAAUAUUACGGAGC	-2.93 ± 0.53	
CUGGAGCAAUAUUACGAUGC	-4.31 ± 1	
CUAGAGCAAUAUUACGUGCA	-3.88 ± 0.21	-2.18 ± 0.19
UUCUAGCAAUAUUACGGGCU	-3.73 ± 0.36	-3.76 ± 0.36
ACAAAGCAAUAUUACGAUGC	-1.61 ± 0.11	-1.9 ± 0.15
ACCAAGCAAUAUUACGUCGC	-3.25 ± 0.19	-1.27 ± 0.14
AUCUAGCAAUAUUACGGGAA	-0.643 ± 0.13	-0.903 ± 0.14
UCAUAGCAAUAUUACGGUAC		-3.21 ± 0.33
UCGUAGCAAUAUUACGGUCC		-2.3 ± 1.1
ACGGAGCAAUAUUACGGUGC	-3.94 ± 0.59	-1.28 ± 0.51
UAGGAGCAAUAUUACGUCAU	-4.05 ± 1	-2.52 ± 1.1

Part of the list above, with each value named:
UCGUAGCAAUAUUACGGUCC
  self-splicing fitness (ln) (37 °C): -2.3 ± 1.1
ACGGAGCAAUAUUACGGUGC
  self-splicing fitness (ln) (30 °C): -3.94 ± 0.59
  self-splicing fitness (ln) (37 °C): -1.28 ± 0.51
UAGGAGCAAUAUUACGUCAU
  self-splicing fitness (ln) (30 °C): -4.05 ± 1
  self-splicing fitness (ln) (37 °C): -2.52 ± 1.1
